Experimental data published in paper doi:10.1101/2024.11.07.622398.
Results are given in words; binding and its absence hold for the method and conditions named. Some binding calls cover weakened binding; strength is not graded here.

The chains behind the UniProt entries cited, without tags or fusion partners.
UniProt O14933: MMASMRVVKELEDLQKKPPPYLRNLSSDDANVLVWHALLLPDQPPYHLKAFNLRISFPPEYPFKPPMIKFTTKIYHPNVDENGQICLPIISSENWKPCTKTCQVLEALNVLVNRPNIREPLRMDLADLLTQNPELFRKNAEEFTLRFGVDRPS

Biological target: T1, mouse UBA7 (mouse) (UniProt Q9DBK7)
T1 sequence: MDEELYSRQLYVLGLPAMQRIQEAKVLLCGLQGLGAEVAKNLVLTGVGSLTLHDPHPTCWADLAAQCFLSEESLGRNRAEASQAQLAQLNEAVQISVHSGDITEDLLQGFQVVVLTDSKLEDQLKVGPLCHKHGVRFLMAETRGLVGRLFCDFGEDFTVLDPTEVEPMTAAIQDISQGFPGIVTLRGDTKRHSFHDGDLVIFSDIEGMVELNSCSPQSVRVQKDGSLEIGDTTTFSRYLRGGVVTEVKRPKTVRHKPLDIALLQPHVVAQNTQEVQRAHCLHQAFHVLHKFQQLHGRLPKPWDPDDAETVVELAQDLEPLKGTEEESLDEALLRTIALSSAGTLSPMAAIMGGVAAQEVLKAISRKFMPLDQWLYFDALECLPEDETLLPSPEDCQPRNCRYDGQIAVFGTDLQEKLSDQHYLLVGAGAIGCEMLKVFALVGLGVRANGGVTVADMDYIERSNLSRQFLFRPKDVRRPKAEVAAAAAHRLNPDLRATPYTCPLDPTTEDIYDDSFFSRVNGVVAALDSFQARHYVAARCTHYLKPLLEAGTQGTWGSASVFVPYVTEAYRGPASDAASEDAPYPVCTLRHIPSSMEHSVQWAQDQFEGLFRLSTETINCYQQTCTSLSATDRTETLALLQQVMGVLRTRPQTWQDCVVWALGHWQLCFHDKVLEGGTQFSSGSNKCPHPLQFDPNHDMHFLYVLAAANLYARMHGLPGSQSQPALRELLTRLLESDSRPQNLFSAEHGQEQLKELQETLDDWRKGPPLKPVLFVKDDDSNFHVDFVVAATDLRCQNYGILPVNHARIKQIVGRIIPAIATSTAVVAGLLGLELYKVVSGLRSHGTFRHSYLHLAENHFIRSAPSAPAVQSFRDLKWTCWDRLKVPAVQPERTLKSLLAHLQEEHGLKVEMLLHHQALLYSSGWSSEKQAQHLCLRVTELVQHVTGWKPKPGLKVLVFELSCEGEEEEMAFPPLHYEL
Test: disulfide complex formation on non-reducing SDS-PAGE

Question: Which binding does the source give for “human UBE2L6 (from UniProt O14933 1-153) (enzyme)” here?
Answer: binds weakly
